In PubChem BioAssay AID2685 (National Center for Advancing Translational Sciences (NCATS), 2010):
Out of some 320,000 compounds screened, about 2,100 (0.66%) were called active. The inconclusive results got no clear call from the source; some entries with a clear call stand among them for comparison. Calls follow the shape of the dose curve; as a rule, active = well fitted inhibition curve with a large enough effect in the signal ratio, with a control signal flat (not every such curve was filed as active); inconclusive = small, poorly fitted or top-dose-only effect, or effect the other way, or a change in a side signal; inactive = flat fitted curve, though single readings scatter; the % refers to the signal ratio. A potency beside an inconclusive call is a rough fit, not a confirmed value.

Test: qHTS Assay for Lipid Storage Modulators in Drosophila S3 Cells
Details: BODIPY lipid droplet fluorescence, 18-24 h, cells fed with added oleic acid; lipid storage change, negative = inhibition: at 46.1 µM (top of the series) unless noted
In short: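 Drosophila S3 cells got compounds at several concentrations plus oleic acid (400 uM solution). Laser-scanning cytometry with 488 nm excitation read lipid droplets at 500-530 nm and cells at 575-640 nm. Percent activity was relative to 20 uM Triacsin C.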
% is scaled to controls: 0 for no effect and ±100 for the full control effect; potency is read from the fitted curve at half-maximal effect.

Compound	Potency	lipid storage change, negative = inhibition
Cc1cc2cc(CCNC(=O)c3cccc([N+](=O)[O-])c3)c(=O)[nH]c2cc1C	inconclusive: 6.51 µM [activator, single point]	–
COc1ccc(NC(=O)Nc2ccc3c(c2)OCO3)c(C)c1	–	inconclusive: -24.2%
Cc1nc2ccccc2c(=O)n1NC(=O)c1cccnc1Cl	–	inconclusive: 11.5%
O=C(CSc1nnc2c(n1)[nH]c1ccccc12)N1CCCCC1	inconclusive: 4.11 µM [falling, partial curve, poor fit]	–
O=C1CCCC/C1=C\Nc1ccccc1C(=O)O	–	inconclusive: -14.1%
CN(C)c1cccc(C(=O)OCC(=O)Nc2ccccc2Cl)c1	–	inconclusive: 6.69%
COc1ccc(CCN2C(=O)CC(Cc3ccc(Br)cc3)C2=O)cc1OC (centres undefined)	–	inconclusive: 22.3%
COc1c(/C=N/Nc2nc(N3CCCCC3)nc(N3CCCCC3)n2)cccc1[N+](=O)[O-]	–	inconclusive: 14.7%
Cc1ccc2oc(=O)c3cnn(CC(=O)NCCCOC(C)C)c3c2c1	–	inconclusive: 5.47%
N#CCCn1c2ccccc2c2nc3ccccc3nc21	inconclusive: 8.2 µM [activator, partial curve]	–
CC(C)(C)OC(=O)N1CCC2(CC1)C(C#N)=C(N)OC1=C2C(=O)CCC1	–	inconclusive: -13.5%
CN1C(=O)/C(=C/c2ccco2)SC1=Nc1cccc(C(=O)O)c1	–	inconclusive: -16.2% [at 9.22 µM]
Cc1ccc(C(C)(O)CS(=O)(=O)Cc2ccccc2)cc1 (centres undefined)	–	inconclusive: 15.6%
CCOC(=O)c1ccc(NC(=O)Cn2nnc(-c3ccc(F)cc3)n2)cc1	–	inactive: -18.5%
c1ccc(-c2cc3c(N4CCN(c5ccccc5)CC4)ncnc3s2)cc1	–	inconclusive: -57.7%
CN(C)c1cc(Nc2ccc(O)cc2)c([N+](=O)[O-])c2nonc12	–	inactive: -2.02%
O=c1cc(-c2ccc(O)cc2)oc2c(C3O[C@H](CO)[C@@H](O)[C@H](O)[C@H]3O)c(O)cc(O)c12 (some centres undefined)	–	inconclusive: -14.6%
COCCN(C)C(=O)CC1C(=O)NCCN1CC(c1ccccc1)c1ccccc1 (centres undefined)	–	inconclusive: -3.41%
COc1ccc(NS(=O)(=O)c2cc(NC(=O)c3cnccn3)ccc2N2CCCC2)cc1	inconclusive: 6.51 µM [activator, single point]	–
CCn1c(=O)cc(NC2=NCC(C)CN2c2cccc(Cl)c2)n(C)c1=O (centres undefined)	–	inconclusive: 16%
O=C(CNS(=O)(=O)c1ccccc1)OCC(=O)c1c[nH]c2ccccc12	inconclusive: 0.517 µM [activator, partial curve, poor fit]	–
O=C(COC(=O)c1cc([N+](=O)[O-])ccc1Cl)NCCc1ccccc1	–	inconclusive: -14.9%
CCOC(=O)c1cc(C(=O)NN)c(=O)[nH]c1C	–	inactive: -8.78%
COc1ccc(N2CCN(C(=O)Cc3ccc(Cl)cc3)CC2)cc1	–	inconclusive: -36.4%
COc1ccc(CNC(=O)c2cc(C3CC3)on2)cc1	–	inconclusive: 10.2% [at 9.22 µM]

A second format for part of the listing above:
Compound,Potency,"lipid storage change, negative = inhibition"
COc1c(/C=N/Nc2nc(N3CCCCC3)nc(N3CCCCC3)n2)cccc1[N+](=O)[O-],–,inconclusive: 14.7%
Cc1ccc2oc(=O)c3cnn(CC(=O)NCCCOC(C)C)c3c2c1,–,inconclusive: 5.47%
N#CCCn1c2ccccc2c2nc3ccccc3nc21,"inconclusive: 8.2 µM [activator, partial curve]",–
CC(C)(C)OC(=O)N1CCC2(CC1)C(C#N)=C(N)OC1=C2C(=O)CCC1,–,inconclusive: -13.5%
CN1C(=O)/C(=C/c2ccco2)SC1=Nc1cccc(C(=O)O)c1,–,inconclusive: -16.2% [at 9.22 µM]
Cc1ccc(C(C)(O)CS(=O)(=O)Cc2ccccc2)cc1 (centres undefined),–,inconclusive: 15.6%
CCOC(=O)c1ccc(NC(=O)Cn2nnc(-c3ccc(F)cc3)n2)cc1,–,inactive: -18.5%
c1ccc(-c2cc3c(N4CCN(c5ccccc5)CC4)ncnc3s2)cc1,–,inconclusive: -57.7%
CN(C)c1cc(Nc2ccc(O)cc2)c([N+](=O)[O-])c2nonc12,–,inactive: -2.02%
O=c1cc(-c2ccc(O)cc2)oc2c(C3O[C@H](CO)[C@@H](O)[C@H](O)[C@H]3O)c(O)cc(O)c12 (some centres undefined),–,inconclusive: -14.6%
COCCN(C)C(=O)CC1C(=O)NCCN1CC(c1ccccc1)c1ccccc1 (centres undefined),–,inconclusive: -3.41%
COc1ccc(NS(=O)(=O)c2cc(NC(=O)c3cnccn3)ccc2N2CCCC2)cc1,"inconclusive: 6.51 µM [activator, single point]",–
CCn1c(=O)cc(NC2=NCC(C)CN2c2cccc(Cl)c2)n(C)c1=O (centres undefined),–,inconclusive: 16%
O=C(CNS(=O)(=O)c1ccccc1)OCC(=O)c1c[nH]c2ccccc12,"inconclusive: 0.517 µM [activator, partial curve, poor fit]",–
O=C(COC(=O)c1cc([N+](=O)[O-])ccc1Cl)NCCc1ccccc1,–,inconclusive: -14.9%

(cont.)

Compound	Potency	lipid storage change, negative = inhibition
Cc1ccc(S(=O)(=O)c2c[nH]c3ccc(C)cc3c2=O)cc1	–	inconclusive: 10.3%
Cc1ccc(S(=O)(=O)c2nc(-c3ccc(F)cc3)oc2N2CCOCC2)cc1	–	inconclusive: 153%
Cc1ccc(/C=C(\C#N)C(=O)NCc2ccco2)o1	–	inactive: 4.22%
COc1cccc(C(c2ccccc2)N2C3CCC2CN(S(=O)(=O)c2ccc(F)cc2)CC3)c1 (centres undefined)	–	inconclusive: -42.8% [at 0.0737 µM]
O=C(Nc1ccc(C2=NCCN2)cc1)c1ccc(C(=O)Nc2ccc(C3=NCCN3)cc2)c([N+](=O)[O-])c1	–	inconclusive: -4.65%
CCOC(=O)N1CCC(=NNc2nc(C)cc(=O)[nH]2)CC1	–	inconclusive: -22.6%
COc1ccc(NS(=O)(=O)c2cccc(C(=O)NCC3(N4CCCCC4)CCCCC3)c2)cc1	inconclusive: 29.1 µM [falling, single point]	–
CCC(C)c1ccccc1NC(=S)Nc1cccnc1 (centres undefined)	–	inconclusive: 32.6%
COc1ccccc1CN1CCNC(=O)C1CC(=O)NCc1cn(C)nc1C (centres undefined)	–	inconclusive: -48.2% [cytotoxic]
O=S(=O)(Nc1ccc(Br)cn1)c1ccc(Cl)s1	inconclusive: 6.51 µM [activator, single point]	–
Cc1ccc(NC(=O)CCNS(=O)(=O)c2cccc3nonc23)cc1	–	inactive: 14.5%
COc1cccc(N2CCN(C(=O)CN(c3cc(C)cc(C)c3)S(=O)(=O)c3c(C)noc3C)CC2)c1	inconclusive: 6.51 µM [activator, single point]	–
O=C(CCSc1nnc(-c2ccccc2)o1)N1CCOCC1	inconclusive: 2.91 µM [rising, full curve]	–
c1ccc(Cc2nn3c(C4COc5ccccc5O4)nnc3s2)cc1 (centres undefined)	inconclusive: 2.91 µM [activator, partial curve]	–
Cc1ccc(C)c(OCc2cc(C(=O)NC3CCOC(C)(C)C3)no2)c1 (centres undefined)	inconclusive: 8.2 µM [activator, partial curve]	–
COc1ccc(C(=O)OCC(=O)NCC2CCCO2)cc1S(=O)(=O)N1CCCc2ccccc21 (centres undefined)	–	inconclusive: 20% [at 9.22 µM]
CN(C)C(=O)c1cc([N+](=O)[O-])cc([N+](=O)[O-])c1N(C)C	inconclusive: 0.103 µM [activator, full curve, poor fit]	–
Cn1c(O)c(/C=C2\C=NN=C2c2ccccc2)sc1=S	inconclusive: 29.1 µM [cytotoxic, single point]	–
COc1cc(S(=O)(=O)N2CCOCC2)ccc1NC(=O)COC(=O)c1ccccn1	–	inactive: -3.84%
CCc1c(C)nc2cc(C)[nH]n2c1=O	–	inconclusive: -5.05%
COCc1n[nH]c(=S)n1-c1cccc2ccccc12	–	inconclusive: -0.893%
CC1=C(C(=O)OCC(C)C)[C@]23C(=O)c4ccccc4[C@@]2(O1)OC(N)=C3C#N	–	inactive: 1.93%
COc1ccc(/C=C/C(=O)Nc2ccc3c(c2)CCC3)cc1OC	–	inconclusive: -31.5%
COc1ccc(C(=O)NCC(=O)OCC(=O)NC(=O)c2ccc(C(C)(C)C)cc2)cc1OC	inconclusive: 0.58 µM [falling, single point]	–
